Test system: acetic acid-induced writhing in mice
Parameters: species or system ICR mice
Conditions: mouse, in vivo, ip
Procedure: The ICR mice (18–22 g) used in this study were purchased from the Experimental Animal Center of SLac-kinda (Changsha, China). The animals were maintained at 20–25°C and freely allowed to standard rodent chow and water ad libitum. Ethical approval for in vivo experiments in animals was approved by the Animal Care and Use Committee (ACUC) at the Hunan Province Animal Management Office (HPAMO).
The abdominal writhing responses were counted for 30 min continuously.

Structure (SMILES): CN1CC[C@]23c4c5ccc(O)c4O[C@H]2[C@@H](O)C=C[C@H]3[C@H]1C5 [morphine, reference compound]
- writhing numbers: 11 ± 3.7

Reference: PMC6198068, “Discovery of a Novel Nav1.7 Inhibitor From Cyriopagopus albostriatus Venom With Potent Analgesic Efficacy” (Frontiers in Pharmacology, 2018)
